No constants are given. Whether binding was seen depends on the method and setting. In cells and extracts the contact can be indirect. Some binding calls cover weakened binding; strength is not graded here.
Biological target: RBPJ (human (endogenous in GBM cells)) (UniProt Q06330)
Experiment: co-IP; cell lysates in IP lysis buffer incubated with anti-RBPJ, anti-NICD, anti-MAML2 or anti-IgG (negative control) antibodies overnight at 4 °C; magnetic beads; western blot

By UniProt entry, the sequences of proteins in these tests, tags left out.
UniProt Q06330: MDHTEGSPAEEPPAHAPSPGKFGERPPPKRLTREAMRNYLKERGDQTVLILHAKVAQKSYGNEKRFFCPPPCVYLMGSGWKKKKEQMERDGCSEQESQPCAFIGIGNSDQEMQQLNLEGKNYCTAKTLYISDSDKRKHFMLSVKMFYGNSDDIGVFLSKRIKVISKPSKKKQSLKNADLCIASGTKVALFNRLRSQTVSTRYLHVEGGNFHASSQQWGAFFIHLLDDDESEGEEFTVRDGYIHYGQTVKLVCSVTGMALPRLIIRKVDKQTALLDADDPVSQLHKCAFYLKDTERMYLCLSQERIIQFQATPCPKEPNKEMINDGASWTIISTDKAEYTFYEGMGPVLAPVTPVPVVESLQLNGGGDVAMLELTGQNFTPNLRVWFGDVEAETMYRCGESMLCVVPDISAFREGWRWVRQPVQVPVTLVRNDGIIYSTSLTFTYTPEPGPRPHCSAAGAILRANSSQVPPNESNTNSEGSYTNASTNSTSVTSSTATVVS
UniProt Q8IZL2: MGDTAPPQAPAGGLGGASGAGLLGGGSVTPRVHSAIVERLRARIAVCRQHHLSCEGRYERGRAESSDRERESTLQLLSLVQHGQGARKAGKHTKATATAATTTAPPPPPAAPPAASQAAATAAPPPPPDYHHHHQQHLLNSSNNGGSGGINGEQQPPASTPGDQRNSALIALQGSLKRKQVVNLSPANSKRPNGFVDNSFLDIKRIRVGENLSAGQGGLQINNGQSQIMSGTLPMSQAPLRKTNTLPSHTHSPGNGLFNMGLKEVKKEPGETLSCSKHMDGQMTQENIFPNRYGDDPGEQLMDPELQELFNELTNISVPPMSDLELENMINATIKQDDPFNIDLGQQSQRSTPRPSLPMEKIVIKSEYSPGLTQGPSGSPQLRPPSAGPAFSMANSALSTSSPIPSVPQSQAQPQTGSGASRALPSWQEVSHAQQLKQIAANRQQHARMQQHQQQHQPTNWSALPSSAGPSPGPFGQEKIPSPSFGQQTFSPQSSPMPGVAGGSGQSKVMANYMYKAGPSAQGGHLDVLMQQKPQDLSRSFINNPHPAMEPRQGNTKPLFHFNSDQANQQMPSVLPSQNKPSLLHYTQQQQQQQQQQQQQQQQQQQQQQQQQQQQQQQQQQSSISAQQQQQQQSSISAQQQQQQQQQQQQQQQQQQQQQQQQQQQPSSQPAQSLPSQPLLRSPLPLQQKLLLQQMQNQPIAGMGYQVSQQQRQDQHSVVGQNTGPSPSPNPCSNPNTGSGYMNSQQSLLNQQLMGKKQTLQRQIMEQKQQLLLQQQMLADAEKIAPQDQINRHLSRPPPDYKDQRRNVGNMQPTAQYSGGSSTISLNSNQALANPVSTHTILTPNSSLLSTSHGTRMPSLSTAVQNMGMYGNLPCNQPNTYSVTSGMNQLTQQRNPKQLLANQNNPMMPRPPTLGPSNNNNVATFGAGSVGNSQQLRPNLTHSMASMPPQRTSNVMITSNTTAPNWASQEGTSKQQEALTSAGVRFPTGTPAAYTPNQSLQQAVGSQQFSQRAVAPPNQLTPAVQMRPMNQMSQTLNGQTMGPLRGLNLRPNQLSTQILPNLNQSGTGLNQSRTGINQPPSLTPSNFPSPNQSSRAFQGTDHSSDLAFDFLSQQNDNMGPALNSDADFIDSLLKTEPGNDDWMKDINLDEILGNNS

binding: binds
Substance: mastermind like transcriptional coactivator 2 (MAML2) (from UniProt Q8IZL2 1-1156)

From PMC7822850
